Measured values from patent US20120015352A1, “METHOD OF DETERMINING SENSITIVITY OF HUMAN OR NON-HUMAN ANIMAL CELLS TO AN IAP ANTAGONIST” (Otto-von-Guericke-Universitat Magdeburg, priority 2009, published 2012).
No constants are given. Whether binding was seen depends on the method and setting. Some entries that bind do so weakly or less than the wild type.

T1: CD95 (human), P25445
T1 chain: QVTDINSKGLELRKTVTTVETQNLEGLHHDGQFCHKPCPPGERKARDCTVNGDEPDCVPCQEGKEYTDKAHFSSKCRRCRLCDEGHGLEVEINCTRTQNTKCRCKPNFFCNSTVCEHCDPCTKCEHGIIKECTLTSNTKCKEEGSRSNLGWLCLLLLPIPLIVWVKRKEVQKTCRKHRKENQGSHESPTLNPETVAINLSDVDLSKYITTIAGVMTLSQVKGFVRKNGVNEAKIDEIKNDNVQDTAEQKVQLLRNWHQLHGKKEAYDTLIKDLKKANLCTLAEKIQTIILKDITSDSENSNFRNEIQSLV


Assays:
[1] = target: T1, CD95 (human), P25445; assay: CD95L-Fc ligand affinity precipitation of the DISC from MET1 and A5-RT3 cells, Western blot; conditions: remark: other sources report otherwise
[2] = target: CD95 (human) (UniProt P25445); assay: as above

Row | binding [1] | binding [2] | Binder
1 | binds |  | FADD, Q13158 1-208 (protein, human, UniProt Q13158 1-208, looked up) MDPFLVLLHSVSSSLSSSELTELKFLCLGRVGKRKLERVQSGLDLFSMLLEQNDLEPGHTELLRELLASLRRHDLLRRVDDFEAGAAAGAAPGEEDLCAAFNVICDNVGKDWRRLARQLKVSDTKIDSIEDRYPRNLTERVRESLRIWKNTEKENATVAHLVGALRSCQMNLVADLVQEVQQARDLQNRSGAMSPMSWNSDASTSEAS
2 |  | binds | caspase-10 (enzyme, human, UniProt Q92851 1-521, looked up) MKSQGQHWYSSSDKNCKVSFREKLLIIDSNLGVQDVENLKFLCIGLVPNKKLEKSSSASDVFEHLLAEDLLSEEDPFFLAELLYIIRQKKLLQHLNCTKEEVERLLPTRQRVSLFRNLLYELSEGIDSENLKDMIFLLKDSLPKTEMTSLSFLAFLEKQGKIDEDNLTCLEDLCKTVVPKLLRNIEKYKREKAIQIVTPPVDKEAESYQGEEELVSQTDVKTFLEALPQESWQNKHAGSNGNRATNGAPSLVSRGMQGASANTLNSETSTKRAAVYRMNRNHRGLCVIVNNHSFTSLKDRQGTHKDAEILSHVFQWLGFTVHIHNNVTKVEMEMVLQKQKCNPAHADGDCFVFCILTHGRFGAVYSSDEALIPIREIMSHFTALQCPRLAEKPKLFFIQACQGEEIQPSVSIEADALNPEQAPTSLQDSIPAEADFLLGLATVPGYVSFRHVEEGSWYIQSLCNHLKKLVPRMLKFLEKTMEIRGRKRTVWGAKQISATSLPTAISAQTPRPPMRRWSSVS
